According to PubChem BioAssay AID320 (DTP/NCI, 2004):
The list shows only some results of the screen, not a fair sample: its compounds were picked by chemical class. Other doses and runs of a compound may be missing. T/C gives the treated animals as a percentage of the vehicle group. Where survival is the endpoint, the PubChem record calls one and a half times the control and up active, and a quarter to a half above the control has no call in these data; cut-offs in other NCI protocols can differ. Some entries show no survivor count and are marked so; the dose need not have been tolerated. Schedule codes are those of the source, taken here to give the interval after Q, in days (D) or hours (H), and the number of doses after X. Some doses were run more than once; their values stand side by side, smallest first.

System: BDF1 mice, P329 reticulum cell sarcoma ip, survival T/C
Test: NCI In Vivo Anticancer Drug Screen. Data for tumor model P329 Reticulum Cell Sarcoma (intraperitoneal) in B6D2F1 (BDF1) mice
Details: T/C endpoint: median survival time, schedule: Q01DX010 (ip), vehicle: saline, higher T/C = longer survival
Description: The antitumor activity of compounds was measured in mice bearing transplantable tumors. Survival or tumor size were measured and the results are expressed as the measurement made in the treated group (T) divided by the measurement made in the vehicle treated control group (C). The tumor model used in this assay is P329 Reticulum Cell Sarcoma (intraperitoneal) in B6D2F1 (BDF1) mice

`CC(C(=O)O)N(CCCl)CCCl` (configuration not stated) was tested, and the T/C (dose: 0.5 mg/kg/injection) was 121 [survivor count not shown] and 128 % of control [survivor count not shown], the T/C (dose: 1.0 mg/kg/injection) was 135 [survivor count not shown] and 167 % of control [survivor count not shown] and the T/C (dose: 2.0 mg/kg/injection) was 153 [survivor count not shown] and 167 % of control [survivor count not shown]. For the same molecule, the T/C (dose: 4.0 mg/kg/injection) was 146 % of control [survivor count not shown].

`NC(Cc1cccc(N(CCCl)CCCl)c1)C(=O)O` (configuration not stated) was tested, and the T/C (dose: 0.31 mg/kg/injection) was 123 % of control [survivor count not shown], the T/C (dose: 0.63 mg/kg/injection) was 123 [survivor count not shown] and 136 % of control [survivor count not shown] and the T/C (dose: 1.25 mg/kg/injection) was 138 [survivor count not shown] and 146 % of control [survivor count not shown]. The T/C (dose: 2.5 mg/kg/injection) was 90 [survivor count not shown] and 176 % of control [survivor count not shown].

`O=C(O)CN(CCCl)CCCl` was tested, and the T/C (dose: 0.63 mg/kg/injection) was 121 [survivor count not shown] and 142 % of control [survivor count not shown], the T/C (dose: 1.25 mg/kg/injection) was 128 [survivor count not shown] and 139 % of control [survivor count not shown] and the T/C (dose: 2.5 mg/kg/injection) was 142 [survivor count not shown] and 146 % of control [survivor count not shown].

In the case of `ClCCN(CCCl)Cc1nc2ccccc2[nH]1`, the T/C (dose: 1.25 mg/kg/injection) is reported as 111 % of control [survivor count not shown], the T/C (dose: 2.5 mg/kg/injection) is reported as 126 [survivor count not shown] and 137 % of control [survivor count not shown] and the T/C (dose: 5.0 mg/kg/injection) is reported as 140 [survivor count not shown] and 146 % of control [survivor count not shown]. The T/C (dose: 10.0 mg/kg/injection) was 107 [survivor count not shown] and 159 % of control [survivor count not shown].

For `ClCCNCCCl`, the T/C (dose: 18.8 mg/kg/injection) was 114 [survivor count not shown] and 119 % of control [survivor count not shown] and the T/C (dose: 37.5 mg/kg/injection) was 139 [survivor count not shown] and 146 % of control [survivor count not shown].
